Structures are written as SMILES. Where two headings read alike, the source gives them in different places. Certain results were filed several times, with different values. The other results are left out here. An entry can have further records. Values that stand side by side differ, and nothing given here explains why; some may be repeats, others may stem from another dose, organism or construct than stated.

Amino acid sequences for entries named in this document (tags omitted). Chains listed by the source or under a name are the forms on record and can include a tag or linker. Residues count along the entry.
UniProt Q96RJ0, whole entry C5S: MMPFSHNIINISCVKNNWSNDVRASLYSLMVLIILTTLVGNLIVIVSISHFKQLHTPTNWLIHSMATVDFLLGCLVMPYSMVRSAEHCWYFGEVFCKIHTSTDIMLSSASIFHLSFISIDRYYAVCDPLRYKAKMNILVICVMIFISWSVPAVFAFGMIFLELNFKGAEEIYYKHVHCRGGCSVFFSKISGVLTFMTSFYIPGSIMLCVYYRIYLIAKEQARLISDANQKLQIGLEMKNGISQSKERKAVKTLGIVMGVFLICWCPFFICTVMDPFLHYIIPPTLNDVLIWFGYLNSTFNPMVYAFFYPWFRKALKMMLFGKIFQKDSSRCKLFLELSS
UniProt Q96RJ0, whole entry C88S: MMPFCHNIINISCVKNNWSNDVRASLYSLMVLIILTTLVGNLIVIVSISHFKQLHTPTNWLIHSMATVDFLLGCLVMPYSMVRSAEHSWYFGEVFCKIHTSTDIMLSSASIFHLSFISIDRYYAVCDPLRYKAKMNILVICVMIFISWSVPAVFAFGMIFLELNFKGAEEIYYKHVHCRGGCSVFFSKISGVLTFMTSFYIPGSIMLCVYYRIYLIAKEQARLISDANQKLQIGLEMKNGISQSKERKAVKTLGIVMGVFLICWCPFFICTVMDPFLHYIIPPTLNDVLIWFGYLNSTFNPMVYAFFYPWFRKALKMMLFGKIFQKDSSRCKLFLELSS
UniProt Q96RJ0, whole entry V184P: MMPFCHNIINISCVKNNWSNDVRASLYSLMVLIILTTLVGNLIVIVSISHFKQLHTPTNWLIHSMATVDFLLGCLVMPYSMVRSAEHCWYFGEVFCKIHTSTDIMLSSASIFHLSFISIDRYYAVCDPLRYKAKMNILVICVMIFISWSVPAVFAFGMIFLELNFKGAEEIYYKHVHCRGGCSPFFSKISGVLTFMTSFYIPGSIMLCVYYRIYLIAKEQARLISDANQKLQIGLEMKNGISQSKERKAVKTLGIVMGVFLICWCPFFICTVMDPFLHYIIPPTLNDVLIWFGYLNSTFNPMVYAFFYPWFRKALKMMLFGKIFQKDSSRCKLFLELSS
UniProt Q96RJ0, whole entry R83H: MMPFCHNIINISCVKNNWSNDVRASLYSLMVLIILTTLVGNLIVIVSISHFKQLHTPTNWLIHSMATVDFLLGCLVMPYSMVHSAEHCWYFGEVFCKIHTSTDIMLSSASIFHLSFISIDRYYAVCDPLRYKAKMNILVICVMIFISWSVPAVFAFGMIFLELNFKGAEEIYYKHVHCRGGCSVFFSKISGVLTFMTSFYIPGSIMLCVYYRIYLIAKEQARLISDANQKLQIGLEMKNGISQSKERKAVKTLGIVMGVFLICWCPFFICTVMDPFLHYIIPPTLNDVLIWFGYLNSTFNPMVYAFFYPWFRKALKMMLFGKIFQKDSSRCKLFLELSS
UniProt Q96RJ0, whole entry C178S: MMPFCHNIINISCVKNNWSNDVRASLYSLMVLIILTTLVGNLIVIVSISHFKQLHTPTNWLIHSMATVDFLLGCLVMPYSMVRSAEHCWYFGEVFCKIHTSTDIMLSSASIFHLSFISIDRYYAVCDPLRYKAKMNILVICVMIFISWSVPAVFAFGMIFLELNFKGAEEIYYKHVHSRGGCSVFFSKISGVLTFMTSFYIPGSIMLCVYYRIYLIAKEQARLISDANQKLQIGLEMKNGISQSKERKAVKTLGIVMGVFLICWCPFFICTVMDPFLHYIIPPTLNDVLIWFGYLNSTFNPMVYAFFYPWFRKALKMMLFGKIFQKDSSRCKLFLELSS
UniProt Q96RJ0, whole entry T194A: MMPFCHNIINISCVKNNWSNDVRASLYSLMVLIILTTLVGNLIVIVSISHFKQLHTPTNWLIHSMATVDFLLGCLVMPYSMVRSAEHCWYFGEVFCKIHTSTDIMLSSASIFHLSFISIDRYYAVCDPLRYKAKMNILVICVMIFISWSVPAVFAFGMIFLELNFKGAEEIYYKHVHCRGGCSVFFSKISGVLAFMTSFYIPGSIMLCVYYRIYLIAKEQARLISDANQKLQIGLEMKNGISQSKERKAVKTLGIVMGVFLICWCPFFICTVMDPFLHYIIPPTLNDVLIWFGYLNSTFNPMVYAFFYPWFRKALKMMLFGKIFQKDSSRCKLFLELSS
UniProt Q96RJ0, 1-339 with tags or gaps F112W: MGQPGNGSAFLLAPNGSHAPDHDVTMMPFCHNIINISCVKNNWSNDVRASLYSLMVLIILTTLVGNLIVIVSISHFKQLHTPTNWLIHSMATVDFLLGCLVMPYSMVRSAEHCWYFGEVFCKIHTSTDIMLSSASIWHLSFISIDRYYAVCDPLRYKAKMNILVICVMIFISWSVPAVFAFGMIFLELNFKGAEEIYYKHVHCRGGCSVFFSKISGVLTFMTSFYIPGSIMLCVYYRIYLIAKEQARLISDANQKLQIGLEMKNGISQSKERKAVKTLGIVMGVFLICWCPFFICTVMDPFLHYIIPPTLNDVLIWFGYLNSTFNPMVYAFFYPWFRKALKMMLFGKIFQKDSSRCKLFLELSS

Assay [1] deals with hTA1 C178S (Homo sapiens, UniProt Q96RJ0, C178S). The following applies: C178S (N=2); β-PEA; log[Agonist], M -8.522.
The target of assay [2] is hTA1 V184P (Homo sapiens, UniProt Q96RJ0, V184P). Briefly: GloSensor cAMP accumulation assay, V184P mutant. The following applies: V184P (N=2), β-PEA, log[Agonist]. In kind it is cell-based. (In general: Changes in cAMP serve as a functional read-out for many G protein-coupled receptors.)
For assay [3], the target named is β2AR-Nterm-hTA1-F112^3.41W (CryoEM Construct) (Homo sapiens, UniProt Q96RJ0, F112W). Briefly: GloSensor cAMP accumulation assay, cryoEM construct.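 Further: cells transiently co-transfected with the receptor construct and GloSensor cAMP biosensor, luminescence read after 30 min compound exposure at room temperature in the dark as cAMP accumulation.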 In kind it is cell-based. The following applies: Cryo EM Construct minus WT average.
Assay [4] has as its target hTA1 C88S (Homo sapiens, UniProt Q96RJ0, C88S). The note with it: C88S (N=2), β-PEA, log[Agonist].
For assay [5], the target named is hTA1 R83H (Homo sapiens, UniProt Q96RJ0, R83H). In words: GloSensor cAMP accumulation assay, R83H mutant.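 Further: cells transiently co-expressing hTA1 and a cAMP GloSensor, luminescence read 30 min after agonist addition at room temperature, concentration–response fitted by non-linear regression.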 The assay is classed as cell-based. The following applies: R83H (N=2), β-PEA, log[Agonist].
The target in assay [6] is hTA1 C5S (Homo sapiens, UniProt Q96RJ0, C5S). The note with it: for C5S - Normalized Luminescence Counts (N=2): log[Compound], single wells.
The target of assay [7] is hTA1 T194A (Homo sapiens, UniProt Q96RJ0, T194A). The note with it: T149A (so in the source) minus WT average.

For the compound `NCCc1ccccc1`, the “Normalized Luminescence Counts” value in assay [1] is 3.333, 3.193, 2.959, 9.783, 5.445, 7.24; in assay [2] (M -7), 14.2987, 25.9995, 32.4504; in assay [2] (M -7.522) it was 8.4795, 4.503, 3.727, 12.5114, 6.1339, 9.909; in assay [2] (M -11.522) it was 1.205, 0.1386, 0.2356, 0.7826, 0.5261, 0.3062; in assay [4] (M -7.522) it was 29.6148, 31.3901, 31.5267, 16.9367, 16.1353, 15.0668; in assay [4] (M -8.522), 6.65, 5.83, 5.466, 3.581, 2.512. The “Normalized Luminescence Counts” value in assay [4] (M -9) is recorded as 1.847, 1.688, 2.993, 0.9095; in assay [5] (M -6.522) it was 27.6972, 12.3991, 13.299, 23.5013, 13.7981; in assay [5] (M -7), 4.3, 13.0219, 2.931, 6.424. The “ΔpEC50 values (each mutant value - WT average), Mean” value in assay [3] is 0.4598 and 0.8322. The “C5S - Normalized Luminescence Counts (N=2)” value is listed as 31.1313, 29.6863, 41.0206, 26.1287, 19.0171, 26.7501 in assay [6] (M = -7.522) and 14.4685, 15.0781, 12.8655, 14.5982, 6.382, 8.453 in assay [6] (M = -8).

Turning to `NCCc1ccc(Oc2ccc(O)cc2)c(I)c1` [T1AM, 3-iodothyronamine], the “ΔpEC50 values (each mutant value - WT average), Mean” value in assay [7] is recorded as 0.2689, 0.4993, 0.06496. Moreover, the “ΔEmax values (each mutant value - WT average), Mean” value in assay [6] (hTA1 C5S minus WT average) is 2.709 and 18.7764. Further, the “C5S - Normalized Luminescence Counts (N=2)” value is 40.5464, 42.3753, 47.5908, 28.2691, 20.8813, 32.4118 in assay [6] (M = -6); 21.7839, 26.0963, 20.5195, 13.0792, 9.282, 19.7765 in assay [6] (M = -6.522); 10.1561, 9.569, 8.418, 2.93, 4.518, 5.484 in assay [6] (M = -7).

(Values after publication PMC10762035, “Molecular basis of human trace amine-associated receptor 1 activation” (Nature Communications, 2024).)
